Experimental data: PubChem BioAssay (Tox21)
The shares of active, inactive and inconclusive entries below differ from those in the screen. Potencies beside an inconclusive call are fits to weak or partial responses and may not hold up. Active and inactive are the calls of the source. Calls follow the shape of the dose curve; as a rule, active = well fitted cell-killing curve with a large enough effect in the repeat runs; inconclusive = weak or mixed curves, or effect the other way; inactive = flat fitted curve, though single readings scatter.
% is scaled to controls: 0 for no effect and ±100 for the full control effect; potency is read from the fitted curve at half-maximal effect.

Test: cAMP Responsive Elements (CRE) small molecule agonists, cell-based qHTS assay: qHTS cell viability counter screen (AID 2060914); also: nearly all actives have a fitted effect of over 50% in size
Settings: CRE-bla HEK293T viability, CellTiter-Glo luminescence, 5 h; series mostly up to 92.4 µM; activity change, negative = cytotoxicity: at the top concentration
Procedure, shortened: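 Cytotoxicity counter screen multiplexed with the CRE-bla reporter assay in HEK 293T cells: 3 h compound exposure at 37 °C, followed by CellTiter-Glo luminescence measured in the same wells.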
For `O=C1c2c(O)cccc2Cc2cccc(O)c21`, the Potency was inconclusive: 27.3 µM [rising, single point]. For `CN1CCN(C2=Nc3cc(Cl)ccc3Nc3ccccc32)CC1`, the “activity change, negative = cytotoxicity” value was inactive: 7.87% [at 42.5 µM]. For `CCCCOC(=O)c1ccc(O)cc1`, the Potency was inconclusive: 1.37 µM [rising, single point]. In the case of `C=Cc1ccc(C=C)cc1`, the Potency was inconclusive: 10.6 µM [cytotoxic, full curve, poor fit]. With `CC(=O)Nc1ccc(OCC(O)CNC(C)C)cc1` (centres undefined) the Potency was inconclusive: 5.96 µM [cytotoxic, single point]. In the case of `CCNc1ccccc1`, the Potency was inconclusive: 55.4 µM [rising, partial curve]. For `CCCc1ccc(N)cc1`, the “activity change, negative = cytotoxicity” value was inactive: 2.96%. With `FC(F)(F)C(F)(F)C(F)(F)C(F)(F)C(F)(F)C(F)(F)CCI` the Potency was inconclusive: 2.11 µM [rising, full curve, poor fit]. For `CN1CCC(N(Cc2cccs2)c2ccccc2)CC1`, the “activity change, negative = cytotoxicity” value was inactive: 1.68% [at 42.5 µM]. For `Cc1cc(=O)oc2cc(O)ccc12`, the Potency was inconclusive: 0.668 µM [cytotoxic, single point]. With `CCCCCCCC/C=C\CCCCCCCC(=O)OC` the Potency was inconclusive: 0.0015 µM [cytotoxic, full curve, poor fit]. For `COC(=O)c1cc(C(=O)OC)cc(S(=O)(=O)O)c1`, the “activity change, negative = cytotoxicity” value was inactive: -11.9%. For `CN(C)CCOC(c1ccccc1)c1ccc(Br)cc1` (centres undefined), the “activity change, negative = cytotoxicity” value was inactive: 5.79% [at 42.5 µM]. In the case of `Nc1ccc(F)c([N+](=O)[O-])c1`, the “activity change, negative = cytotoxicity” value was inactive: 1.89%. For `CC(C)C[C@H](NC(=O)[C@H](CCc1ccccc1)NC(=O)CN1CCOCC1)C(=O)N[C@@H](Cc1ccccc1)C(=O)N[C@@H](CC(C)C)C(=O)[C@@]1(C)CO1`, the Potency was inconclusive: 2.98 µM [rising, full curve, poor fit]. For `Oc1ccccc1O`, the Potency was inconclusive: 1.39 µM [cytotoxic, single point]. For `O=C(O)c1ccc2cc(O)ccc2c1`, the Potency was inconclusive: 26.9 µM [rising, single point]. In the case of `CCCCC/C=C\C=C\C(=O)OCC`, the Potency was inconclusive: 2.01 µM [cytotoxic, single point]. In the case of `CC(=O)N[C@@H](CS)C(=O)O`, the Potency was inconclusive: 33.5 µM [cytotoxic, single point]. With `CCCCCCCCCCCCCC(=O)OC(C)C` the Potency was inconclusive: 0.851 µM [cytotoxic, single point]. With `CC(C)(C)c1ccc(O)c(O)c1` the Potency was inconclusive: 0.243 µM [cytotoxic, single point]. In the case of `Cc1cccc2c1cc1ccc3cccc4ccc2c1c34`, the “activity change, negative = cytotoxicity” value was inactive: 2.05%. In the case of `CC[N+](CC)(CC)CCOc1ccc(/C=C/c2ccccc2)cc1`, the Potency was inconclusive: 13.3 µM [cytotoxic, partial curve]. In the case of `COCc1c(C(C)C)nc(C(C)C)c(/C=C/[C@@H](O)C[C@@H](O)CC(=O)O)c1-c1ccc(F)cc1`, the Potency was “inactive”. With `COc1ccc2nc(NC(=O)Nc3ccccc3)sc2c1` the Potency was inconclusive: 33.5 µM [cytotoxic, single point]. With `COc1cc(NC(C)CCCN)c2ncccc2c1` (centres undefined) the “activity change, negative = cytotoxicity” value was inactive: 19.4% [at 42.5 µM]. In the case of `O=C1CCC/C=C\CCCCCCCCCC1`, the “activity change, negative = cytotoxicity” value was inactive: -1.34%. In the case of `CCCCOCCOC(=O)c1cccnc1`, the “activity change, negative = cytotoxicity” value was inactive: -6.87% [at 42.5 µM]. For `O=C1CCc2ccc(OCCCCN3CCN(c4cccc(Cl)c4Cl)CC3)cc2N1`, the Potency was inconclusive: 33.5 µM [cytotoxic, single point]. In the case of `c1ccc2[nH]cnc2c1`, the Potency was inconclusive: 0.545 µM [cytotoxic, single point]. For `CC1=C(C(=O)O)N2C(=O)[C@@H](NC(=O)[C@H](N)C3=CCC=CC3)[C@H]2SC1`, the “activity change, negative = cytotoxicity” value was inactive: 1.07% [at 42.5 µM]. For `CCCNC(=O)NS(=O)(=O)c1ccc(Cl)cc1`, the Potency was “inactive”. In the case of `Cc1ccc(C(C)OC(=O)C2(C)CCC(C(=O)O)C2(C)C)cc1` (centres undefined), the Potency was inconclusive: 0.298 µM [cytotoxic, single point]. In the case of `COCCc1ccc(OCC(O)CNC(C)C)cc1` (centres undefined), the Potency was “inactive”. With `O=Nc1ccc(Nc2ccccc2)cc1` the Potency was inconclusive: 13.8 µM [rising, full curve]. In the case of `O=c1[nH]c2ccccc2n1CCCN1CCN(C(c2ccccc2)c2ccccc2)CC1`, the Potency was inconclusive: 11.9 µM [rising, single point]. For `O=C1c2cccc(O)c2C(=O)c2c(O)cc(CO)cc21`, the Potency was inconclusive: 0.611 µM [cytotoxic, single point]. With `CCc1cc(SCc2sc(-c3ccc(C(F)(F)F)cc3)nc2CN2CCN(c3ccc(OC)cc3)CC2)ccc1OCC(=O)O` the Potency was active: 61.1 µM. In the case of `FC(F)(F)c1ccc(Cl)cc1Cl`, the Potency was inconclusive: 6.8 µM [cytotoxic, single point].
